Data on one molecule can be found in US8709764B2, “Enzymatic demethylation of flavonoids” (Universiteit Gent, priority 2005, dated 2014).

The data set relates to human fecal cultures. Briefly: Incubation of IX with human fecal cultures (E-L; 51 fecal samples) for 3 days. Format: in vitro ADME. Particulars: 25 mg/l IX. Here is the method: Fecal slurries of 20% (w/v) fresh fecal samples were prepared by homogenizing the feces with phosphate buffered saline (0.1 M, pH 7) containing 1 g/l sodiumthioglycolate as reducing agent. The particulate material was removed by centrifugation (1 min, 500×g). The supernatant is hereafter called “the culture”.
But not all cultures were able to perform this reaction. Therefore, the remaining cultures E-L (10% (v/v)) were incubated for 3 days in Brain Heart Infusion broth (with 0.5 g/l cystein-HCl) under anaerobic conditions with 25 mg/l IX (FIG. 4).
To further investigate these inter-individual differences, a total of 51 fecal samples were incubated for 3 days in Brain Heart Infusion broth (with 0.5 g/l cystein-HCl) under anaerobic conditions, containing 25 mg/l IX (FIG. 5). The results are presented as % 8-PN production relative to the incubated IX concentration and samples were ordered by increasing 8-PN production capacity.

Molecules are shown by their SMILES.

As to `COc1cc(O)c(CC=C(C)C)c2c1C(=O)C[C@@H](c1ccc(O)cc1)O2` [IX, 5-O-methyl-8-prenylnaringenin], the “Share of individuals that are high 8-PN producers (group c)” value is recorded as 16%, the “Share of individuals that are moderate 8-PN producers (group b)” value amounted to 22% and the “Share of individuals that are slow 8-PN producers (group a)” value amounted to 63%.
